Measurements taken from patent US12099068B2, “Biomarkers for graft-versus-host disease” (Incyte Corporation, priority 2018, dated 2024).

B1: MFAP5 (protein, UniProt Q13361 22-173, looked up)
Microfibrillar-associated …: IPLGVNSQRGDDVTQATPETFTEDPNLVNDPATDETVLAVLADIAPSTDDLASLSEKNTTAECWDEKFTCTRLYSVHRPVKQCIHQLCFTSLRRMYIVNKEICSRLVCKEHEAMKDELCRQMAGLPPRRLRRSNYFRLPPCENVDLQRPNGL
B2: PREB (protein, UniProt Q9HCU5 1-417, looked up)
Guanine nucleotide-exchange …: MGRRRAPELYRAPFPLYALQVDPSTGLLIAAGGGGAAKTGIKNGVHFLQLELINGRLSASLLHSHDTETRATMNLALAGDILAAGQDAHCQLLRFQAHQQQGNKAEKAGSKEQGPRQRKGAAPAEKKCGAETQHEGLELRVENLQAVQTDFSSDPLQKVVCFNHDNTLLATGGTDGYVRVWKVPSLEKVLEFKAHEGEIEDLALGPDGKLVTVGRDLKASVWQKDQLVTQLHWQENGPTFSSTPYRYQACRFGQVPDQPAGLRLFTVQIPHKRLRQPPPCYLTAWDGSNFLPLRTKSCGHEVVSCLDVSESGTFLGLGTVTGSVAIYIAFSLQCLYYVREAHGIVVTDVAFLPEKGRGPELLGSHETALFSVAVDSRCQLHLLPSRRSVPVWLLLLLCVGLIIVTILLLQSAFPGFL
B3: TIMP4 (protein, UniProt Q99727 30-224, looked up)
Metalloproteinase inhibitor 4: CSCAPAHPQQHICHSALVIRAKISSEKVVPASADPADTEKMLRYEIKQIKMFKGFEKVKDVQYIYTPFDSSLCGVKLEANSQKQYLLTGQVLSDGKVFIHLCNYIEPWEDLSLVQRESLNHHYHLNCGCQITTCYTVPCTISAPNECLWTDWLLERKLYGYQAQHYVCMKHVDGTCSWYRGHLPLRKEFVDIVQP
B4: WNT9A (protein, UniProt O14904 30-365, looked up)
Protein Wnt-9a: YFGLTGSEPLTILPLTLEPEAAAQAHYKACDRLKLERKQRRMCRRDPGVAETLVEAVSMSALECQFQFRFERWNCTLEGRYRASLLKRGFKETAFLYAISSAGLTHALAKACSAGRMERCTCDEAPDLENREAWQWGGCGDNLKYSSKFVKEFLGRRSSKDLRARVDFHNNLVGVKVIKAGVETTCKCHGVSGSCTVRTCWRQLAPFHEVGKHLKHKYETALKVGSTTNEAAGEAGAISPPRGRASGAGGSDPLPRTPELVHLDDSPSFCLAGRFSPGTAGRRCHREKNCESICCGRGHNTQSRVVTRPCQCQVRWCCYVECRQCTQREEVYTCKG
B5: CDSN (protein, UniProt Q15517 33-529, looked up)
Corneodesmosin: KSIGTFSDPCKDPTRITSPNDPCLTGKGDSSGFSSYSGSSSSGSSISSARSSGGGSSGSSSGSSIAQGGSAGSFKPGTGYSQVSYSSGSGSSLQGASGSSQLGSSSSHSGNSGSHSGSSSSHSSSSSSFQFSSSSFQVGNGSALPTNDNSYRGILNPSQPGQSSSSSQTFGVSSSGQSVSSNQRPCSSDIPDSPCSGGPIVSHSGPYIPSSHSVSGGQRPVVVVVDQHGSGAPGVVQGPPCSNGGLPGKPCPPITSVDKSYGGYEVVGGSSDSYLVPGMTYSKGKIYPVGYFTKENPVKGSPGVPSFAAGPPISEGKYFSSNPIIPSQSAASSAIAFQPVGTGGVQLCGGGSTGSKGPCSPSSSRVPSSSSISSSSGLPYHPCGSASQSPCSPPGTGSFSSSSSSQSSGKIILQPCGSKSSSSGHPCMSVSSLTLTGGPDGSPHPDPSAGAKPCGSSSAGKIPCRSIRDILAQVKPLGPQLADPEVFLPQGELLNSP
B6: ENTPD2 (protein, UniProt Q9Y5L3 1-495, looked up)
Ectonucleoside triphosphate …: MAGKVRSLLPPLLLAAAGLAGLLLLCVPTRDVREPPALKYGIVLDAGSSHTSMFIYKWPADKENDTGIVGQHSSCDVPGGGISSYADNPSGASQSLVGCLEQALQDVPKERHAGTPLYLGATAGMRLLNLTNPEASTSVLMAVTHTLTQYPFDFRGARILSGQEEGVFGWVTANYLLENFIKYGWVGRWFRPRKGTLGAMDLGGASTQITFETTSPAEDRASEVQLHLYGQHYRVYTHSFLCYGRDQVLQRLLASALQTHGFHPCWPRGFSTQVLLGDVYQSPCTMAQRPQNFNSSARVSLSGSSDPHLCRDLVSGLFSFSSCPFSRCSFNGVFQPPVAGNFVAFSAFFYTVDFLRTSMGLPVATLQQLEAAAVNVCNQTWAQLQARVPGQRARLADYCAGAMFVQQLLSRGYGFDERAFGGVIFQKKAADTAVGWALGYMLNLTNLIPADPPGLRKGTDFSSWVVLLLLFASALLAALVLLLRQVHSAKLPSTI
B7: CXADR (protein, UniProt P78310 20-365, looked up)
Coxsackievirus and adenovirus …: LSITTPEEMIEKAKGETAYLPCKFTLSPEDQGPLDIEWLISPADNQKVDQVIILYSGDKIYDDYYPDLKGRVHFTSNDLKSGDASINVTNLQLSDIGTYQCKVKKAPGVANKKIHLVVLVKPSGARCYVDGSEEIGSDFKIKCEPKEGSLPLQYEWQKLSDSQKMPTSWLAEMTSSVISVKNASSEYSGTYSCTVRNRVGSDQCLLRLNVVPPSNKAGLIAGAIIGTLLALALIGLIIFCCRKKRREEKYEKEVHHDIREDVPPPKSRTSTARSYIGSNHSSLGSMSPSNMEGYSKTQYNQVPSEDFERTPQSPTLPPAKVAAPNLSRMGAIPVMIPAQSKDGSIV
B8: ALDH3A1 (protein, UniProt P30838 2-453, looked up)
Aldehyde dehydrogenase, …: SKISEAVKRARAAFSSGRTRPLQFRIQQLEALQRLIQEQEQELVGALAADLHKNEWNAYYEEVVYVLEEIEYMIQKLPEWAADEPVEKTPQTQQDELYIHSEPLGVVLVIGTWNYPFNLTIQPMVGAIAAGNSVVLKPSELSENMASLLATIIPQYLDKDLYPVINGGVPETTELLKERFDHILYTGSTGVGKIIMTAAAKHLTPVTLELGGKSPCYVDKNCDLDVACRRIAWGKFMNSGQTCVAPDYILCDPSIQNQIVEKLKKSLKEFYGEDAKKSRDYGRIISARHFQRVMGLIEGQKVAYGGTGDAATRYIAPTILTDVDPQSPVMQEEIFGPVLPIVCVRSLEEAIQFINQREKPLALYMFSSNDKVIKKMIAETSSGGVAANDVIVHITLHSLPFGGVGNSGMGSYHGKKSFETFSHRRSCLVRPLMNDEGLKVRYPPSPAKMTQH
B9: DRAXIN (protein, UniProt Q8NBI3 26-349, looked up)
Draxin: GALAPGTPARNLPENHIDLPGPALWTPQASHHRRRGPGKKEWGPGLPSQAQDGAVVTATRQASRLPEAEGLLPEQSPAGLLQDKDLLLGLALPYPEKENRPPGWERTRKRSREHKRRRDRLRLHQGRALVRGPSSLMKKAELSEAQVLDAAMEESSTSLAPTMFFLTTFEAAPATEESLILPVTSLRPQQAQPRSDGEVMPTLDMALFDWTDYEDLKPDGWPSAKKKEKHRGKLSSDGNETSPAEGEPCDHHQDCLPGTCCDLREHLCTPHNRGLNNKCFDDCMCVEGLRCYAKFHRNRRVTRRKGRCVEPETANGDQGSFINV
B10: BCAN (protein, UniProt Q96GW7 23-911, looked up)
Brevican core protein: DVLEGDSSEDRAFRVRIAGDAPLQGVLGGALTIPCHVHYLRPPPSRRAVLGSPRVKWTFLSRGREAEVLVARGVRVKVNEAYRFRVALPAYPASLTDVSLALSELRPNDSGIYRCEVQHGIDDSSDAVEVKVKGVVFLYREGSARYAFSFSGAQEACARIGAHIATPEQLYAAYLGGYEQCDAGWLSDQTVRYPIQTPREACYGDMDGFPGVRNYGVVDPDDLYDVYCYAEDLNGELFLGDPPEKLTLEEARAYCQERGAEIATTGQLYAAWDGGLDHCSPGWLADGSVRYPIVTPSQRCGGGLPGVKTLFLFPNQTGFPNKHSRFNVYCFRDSAQPSAIPEASNPASNPASDGLEAIVTVTETLEELQLPQEATESESRGAIYSIPIMEDGGGGSSTPEDPAEAPRTLLEFETQSMVPPTGFSEEEGKALEEEEKYEDEEEKEEEEEEEEVEDEALWAWPSELSSPGPEASLPTEPAAQEESLSQAPARAVLQPGASPLPDGESEASRPPRVHGPPTETLPTPRERNLASPSPSTLVEAREVGEATGGPELSGVPRGESEETGSSEGAPSLLPATRAPEGTRELEAPSEDNSGRTAPAGTSVQAQPVLPTDSASRGGVAVVPASGDCVPSPCHNGGTCLEEEEGVRCLCLPGYGGDLCDVGLRFCNPGWDAFQGACYKHFSTRRSWEEAETQCRMYGAHLASISTPEEQDFINNRYREYQWIGLNDRTIEGDFLWSDGVPLLYENWNPGQPDSYFLSGENCVVMVWHDQGQWSDVPCNYHLSYTCKMGLVSCGPPPELPLAQVFGRPRLRYEVDTVLRYRCREGLAQRNLPLIRCQENGRWEAPQISCVPRRPARALHPEEDPEGRQGRLLGRWKALLIPPSSPMPGP
B11: IGFBP-1 (protein, UniProt P08833 26-259, looked up)
Insulin-like growth …: APWQCAPCSAEKLALCPPVSASCSEVTRSAGCGCCPMCALPLGAACGVATARCARGLSCRALPGEQQPLHALTRGQGACVQESDASAPHAAEAGSPESPESTEITEEELLDNFHLMAPSEEDHSILWDAISTYDGSKALHVTNIKKWKEPCRIELYRVVESLAKAQETSGEEISKFYLPNCNKNGFYHSRQCETSMDGEAGLCWCVYPWNGKRIPGSPEIRGDPNCQIYFNVQN
B12: DDAH1 (protein, UniProt O94760 2-285, looked up)
N(G),N(G)-dimethylarginine …: AGLGHPAAFGRATHAVVRALPESLGQHALRSAKGEEVDVARAERQHQLYVGVLGSKLGLQVVELPADESLPDCVFVEDVAVVCEETALITRPGAPSRRKEVDMMKEALEKLQLNIVEMKDENATLDGGDVLFTGREFFVGLSKRTNQRGAEILADTFKDYAVSTVPVADGLHLKSFCSMAGPNLIAIGSSESAQKALKIMQQMSDHRYDKLTVPDDIAANCIYLNIPNKGHVLLHRTPEEYPESAKVYEKLKDHMLIPVSMSELEKVDGLLTCCSVLINKKVDS

Legend:
plasma proteins [1] = experiment: OLINK proximity extension assay of baseline plasma, CR compared to PD/Death, updated classification, Example 5 (Table 11); type: in vivo, human; conditions: itacitinib 200 or 300 mg QD plus corticosteroids, response at day 28
plasma proteins [2] = experiment: Proteins of Table 11 stably expressed in complete responders between days 1 and 28, Example 5 (Table 12); type: in vivo, human; conditions: day 1 vs day 28
Experimental: Due to the limited sample size, steroid-naive (N=10) and steroid-refractory (N=18) patients were combined for further analysis. Broad proteomic analysis of over 1000 proteins was conducted by OLINK Proteomics (Watertown, MA) using a proximity extension assay as described by the manufacturer. Data are presented as normalized protein expression (NPX) in log 2 scale. Statistical differences were evaluated using unpaired and paired t tests, one-way […] (ANOVA), and Pearson Correlation. Significance was conferred when P<0.05.

| Molecule | Fold Change, Up-Regulated in CR Compared to PD/Death (plasma proteins [1]) | Fold Change (D1 vs D28), proteins Up-Regulated in CR Compared to PD/Death (plasma proteins [2]) | Fold Change, Down-Regulated in CR Compared to PD/Death (plasma proteins [1]) | Fold Change (D1 vs D28), proteins Down-Regulated in CR Compared to PD/Death (plasma proteins [2]) |
| --- | --- | --- | --- | --- |
| B1 | 1.4911 | −1.1215 | – | – |
| B2 | – | – | −2.1563 | 1.0663 |
| B3 | 1.5269 | 1.0265 | – | – |
| B4 | 1.5125 | 1.0058 | – | – |
| B5 | 1.6718 | −1.05 | – | – |
| B6 | – | – | −2.1935 | 1.0197 |
| B7 | – | – | −2.4672 | −1.0305 |
| B8 | – | – | −2.477 | −1.292 |
| B9 | 1.6547 | −1.0356 | – | – |
| B10 | 1.6911 | 1.0439 | – | – |
| B11 | – | – | −2.4965 | −1.0455 |
| B12 | – | – | −2.5062 | −1.1714 |
